Source: patent publication US20110136237
For at least one entry, the source does not settle the construct or the ends of the probe. A negative result means that nothing was seen under these conditions. For part of these data: Protein sequences can lack the tags named with them.

How the values were obtained:
Assay in all cases: activity in cells
[1] = target: phiC31 integrase (Streptomyces bacteriophage phiC31) (UniProt Q9T221); details: excision not detected, S. pombe, attP/attB pair, protein in cells
[2] = tested on: T1, TP901-1 recombinase (Lactococcus lactis bacteriophage TP901-1); details: excision not detected, S. pombe, attP/attB pair; protein in cells; only the site is given
T1 sequence (limits assumed): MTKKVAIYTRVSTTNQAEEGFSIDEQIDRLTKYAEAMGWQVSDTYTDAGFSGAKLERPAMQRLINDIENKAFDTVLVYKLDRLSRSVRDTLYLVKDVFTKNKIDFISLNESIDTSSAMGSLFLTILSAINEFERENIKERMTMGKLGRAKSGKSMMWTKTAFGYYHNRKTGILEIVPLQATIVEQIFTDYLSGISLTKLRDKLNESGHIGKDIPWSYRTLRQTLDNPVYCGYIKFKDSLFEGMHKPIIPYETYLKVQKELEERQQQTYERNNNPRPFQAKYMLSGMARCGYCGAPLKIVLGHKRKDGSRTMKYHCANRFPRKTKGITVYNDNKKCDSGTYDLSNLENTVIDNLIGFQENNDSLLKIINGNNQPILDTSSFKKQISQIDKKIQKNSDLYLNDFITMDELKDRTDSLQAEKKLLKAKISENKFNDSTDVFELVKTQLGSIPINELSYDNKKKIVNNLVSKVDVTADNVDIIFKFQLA

[3] = tested on: Bxb1 recombinase (Mycobacterium smegmatis bacteriophage Bxb1); details: excision not detected, S. pombe, attP/attB pair, protein in cells
[4] = tested on: T2, U153 recombinase (Listeria monocytogenes bacteriophage U153); details: excision not detected, S. pombe, attP/attB pair, protein in cells
T2 sequence (limits assumed): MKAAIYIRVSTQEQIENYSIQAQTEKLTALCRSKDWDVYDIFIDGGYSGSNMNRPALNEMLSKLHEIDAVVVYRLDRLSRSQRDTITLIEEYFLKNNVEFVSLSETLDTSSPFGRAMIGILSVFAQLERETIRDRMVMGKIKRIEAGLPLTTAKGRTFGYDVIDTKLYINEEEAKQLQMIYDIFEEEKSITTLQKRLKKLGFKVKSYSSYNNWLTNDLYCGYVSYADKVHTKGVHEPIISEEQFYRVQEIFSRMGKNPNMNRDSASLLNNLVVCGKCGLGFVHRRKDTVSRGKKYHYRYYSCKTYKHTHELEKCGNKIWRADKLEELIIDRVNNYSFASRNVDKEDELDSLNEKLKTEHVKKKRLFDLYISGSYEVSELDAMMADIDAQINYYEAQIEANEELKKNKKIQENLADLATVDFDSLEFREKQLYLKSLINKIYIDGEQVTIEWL

[5] = tested on: T3, CinH recombinase (Acinetobacter sp. ED45-25 plasmid); details: excision not detected, S. pombe; protein in cells
T3 sequence (limits assumed): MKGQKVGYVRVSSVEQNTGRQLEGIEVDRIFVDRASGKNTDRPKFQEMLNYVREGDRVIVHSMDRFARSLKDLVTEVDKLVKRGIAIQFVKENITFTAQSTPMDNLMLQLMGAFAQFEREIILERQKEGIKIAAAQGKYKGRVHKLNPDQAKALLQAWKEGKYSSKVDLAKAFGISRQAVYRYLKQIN

[6] = tested on: T4, Tn5053 resolvase (transposon Tn5053, Xanthomonas sp. W17); details: excision not detected, S. pombe; protein in cells
T4 sequence: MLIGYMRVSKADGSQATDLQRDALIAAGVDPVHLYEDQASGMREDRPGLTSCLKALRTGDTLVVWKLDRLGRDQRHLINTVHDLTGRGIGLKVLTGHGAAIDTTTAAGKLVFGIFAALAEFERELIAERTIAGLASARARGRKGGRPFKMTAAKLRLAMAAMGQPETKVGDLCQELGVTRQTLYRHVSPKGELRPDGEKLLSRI

[7] = target: T5, Tn1721 resolvase (transposon Tn1721, Escherichia coli) (UniProt P0C1G2); details: excision not detected, S. pombe; protein in cells
T5 sequence (limits assumed): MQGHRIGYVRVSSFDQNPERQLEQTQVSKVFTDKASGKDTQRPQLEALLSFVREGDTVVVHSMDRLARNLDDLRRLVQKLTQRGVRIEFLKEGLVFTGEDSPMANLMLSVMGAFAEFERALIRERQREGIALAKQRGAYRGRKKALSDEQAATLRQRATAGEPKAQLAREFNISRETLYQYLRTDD

[8] = tested on: T6, ParA recombinase (plasmids RK2/RP4); details: excision not detected, S. pombe; protein in cells
T6 sequence (limits assumed): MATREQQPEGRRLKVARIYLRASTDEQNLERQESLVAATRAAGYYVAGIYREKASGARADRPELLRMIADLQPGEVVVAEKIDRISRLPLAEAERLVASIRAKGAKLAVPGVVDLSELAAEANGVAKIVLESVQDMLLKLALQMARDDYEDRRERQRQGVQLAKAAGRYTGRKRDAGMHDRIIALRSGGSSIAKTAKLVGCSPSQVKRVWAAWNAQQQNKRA

Measured: activity on this sequence

AACTTTTTCGGATCAAGCTATGAAGGACGCAAAGAGGGAACTAAACACTTG (double strand) [U153 attB]
not active: [1]; only the site is given | [2] | [3]; only the site is given

CCGGCTTGTCGACGACGGCGGTCTCCGTCGTCAGGATCATCC (double strand) [Bxb1 attB]
not active: [1]; only the site is given | [4]; only the site is given | [2]

TCAAATTGGGTATACCCATTTGGGCCTAGTCTAGCCGGCATGGCGCATTACAGCAATACGCAATTTAAATGCGCCTAGCGCATTTTCCCGACCTTAATGCGCCTCGCGCTGTAGCCTCACGCCCACATATGAG (double strand) [ParA MRS site]
not active: [5] | [6] | [7]

CAGTGGTTTGTCTGGTCAACCACCGCGGTCTCAGTGGTGTACGGTACAAACCC (double strand) [Bxb1 attP]
not active: [1]; only the site is given | [4]; only the site is given | [2]

TTGTTTAGTTCCTCGTTTTCTCTCGTTGGACGGAAACGAATCGAGAAACTAAAATTA (double strand) [U153 attP]
not active: [1]; only the site is given | [2] | [3]; only the site is given

ATGCCAACACAATTAACATCTCAATCAAGGTAAATGCTTTTTGCTTTTTTTGCGACGTC (double strand) [TP901-1 attB]
not active: [1]; only the site is given | [4]; only the site is given | [3]; only the site is given

TGTCAATCTAGGCTATACCCTAACTTGATGTCAGGCAGGGCCGCGCCGCTTCGTCAGAATAGAGTCTGCTTTCCCATTTTTTGACACATGCCCGCGAAGGTTATAGATTTCAGCCTGACA (double strand) [Tn1721 res site]
not active: [5] | [6] | [8]

CGTTACTTTGGGGTATACCCTAAAGTTACAATATAAAAGTTCTTAAAACTATGTAACATTTAAATGATTTTTAACCATATATAACATGTAACTTTGATATTTAAGATTTATAATTTACG (double strand) [CinH RS2 site]
not active: [6] | [8] | [7]

TCCAACTCGCTTAATTGCGAGTTTTTATTTCGTTTATTTCAATTAAGGTAACTAAAAAACTCCTT (double strand) [TP901-1 attP]
not active: [1] | [4] | [3]

CTGTCACATATACGTTCGATTATGTGACAGTGTGAGCCAGAAAGTTCTCGCCGTCAAAAACTGTCACTTAACCCGTCATTTAGTCTAAGACCTGCAAACGGCCATTCAGGCTCGTAATGTGACAAAAACTCCGGCGGGATGCCCTCCTTGGTGAACGTGGCGCGCAAACGTTCCAGGGATTCGGGGTCG (double strand) [Tn5053 res site]
not active: [5] | [8] | [7]
